No constants are given. Whether binding was seen depends on the method and setting. Some results given as binding are weak or reduced against the parent protein; the word gives no strength.

The chains behind the UniProt entries cited, without tags or fusion partners. Where a name states a change or a piece, a line headed by the entry shows the natural chain unless it says otherwise. Residues count along the entry.
UniProt Q96PV6, residues 549-800: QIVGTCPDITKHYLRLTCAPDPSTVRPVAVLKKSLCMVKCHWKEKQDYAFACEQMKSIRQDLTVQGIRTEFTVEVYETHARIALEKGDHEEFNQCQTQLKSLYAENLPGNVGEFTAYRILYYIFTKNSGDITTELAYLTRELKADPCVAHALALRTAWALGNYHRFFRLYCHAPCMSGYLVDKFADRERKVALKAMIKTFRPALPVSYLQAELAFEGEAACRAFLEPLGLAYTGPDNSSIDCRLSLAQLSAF
UniProt Q96FV9: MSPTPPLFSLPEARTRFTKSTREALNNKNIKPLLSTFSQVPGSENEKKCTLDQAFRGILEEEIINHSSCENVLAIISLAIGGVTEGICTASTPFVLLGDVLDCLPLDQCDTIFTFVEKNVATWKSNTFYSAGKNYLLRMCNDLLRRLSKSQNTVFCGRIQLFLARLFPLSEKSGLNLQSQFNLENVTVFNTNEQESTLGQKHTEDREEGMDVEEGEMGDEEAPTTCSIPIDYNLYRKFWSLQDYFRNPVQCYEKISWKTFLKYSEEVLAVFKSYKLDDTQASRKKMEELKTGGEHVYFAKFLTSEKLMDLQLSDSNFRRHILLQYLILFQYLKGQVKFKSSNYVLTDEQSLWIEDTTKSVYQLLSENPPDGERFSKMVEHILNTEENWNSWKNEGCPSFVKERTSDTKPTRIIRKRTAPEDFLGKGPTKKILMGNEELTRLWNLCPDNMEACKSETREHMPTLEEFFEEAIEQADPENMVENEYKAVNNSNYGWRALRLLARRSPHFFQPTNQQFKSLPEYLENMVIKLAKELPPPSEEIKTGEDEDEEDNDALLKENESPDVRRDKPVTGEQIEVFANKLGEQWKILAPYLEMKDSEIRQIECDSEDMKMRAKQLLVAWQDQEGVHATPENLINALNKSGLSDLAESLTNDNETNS
UniProt P03466: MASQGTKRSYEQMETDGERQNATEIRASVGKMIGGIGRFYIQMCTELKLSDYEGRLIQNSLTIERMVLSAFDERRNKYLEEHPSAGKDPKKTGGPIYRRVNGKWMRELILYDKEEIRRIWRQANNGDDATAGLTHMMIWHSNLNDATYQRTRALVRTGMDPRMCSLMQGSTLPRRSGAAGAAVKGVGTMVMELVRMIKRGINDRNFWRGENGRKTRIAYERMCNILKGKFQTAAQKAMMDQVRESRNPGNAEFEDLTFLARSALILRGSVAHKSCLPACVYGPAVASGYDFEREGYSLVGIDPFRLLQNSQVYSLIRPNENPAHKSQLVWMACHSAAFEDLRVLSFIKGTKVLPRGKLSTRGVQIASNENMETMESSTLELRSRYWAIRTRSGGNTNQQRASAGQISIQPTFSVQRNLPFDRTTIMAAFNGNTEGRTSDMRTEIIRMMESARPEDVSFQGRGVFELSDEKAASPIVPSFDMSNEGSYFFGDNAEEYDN

This passage reports binding results from PMC12216326.

Test [1] concerns the target GST-LENG8 (residues 549-800) (human) (UniProt Q96PV6).
Test [2] deals with GST-DDX39B (residues 1-428) (human) (UniProt Q13838).

In the case of “human THO complex (from UniProt Q96FV9 1-657; Q8NI27 1-1180; Q96J01 1-351; Q13769 12-230; Q6I9Y2 1-204)”, in test [1], the binding result was “no binding (tested: 1 µM of GST-LENG8)”.
For “Recombinant influenza virus A/PR/8/34 NP protein (from UniProt P03466 1-498)”, in test [2], the binding result is given as “binds”.
